Data reported in article PMC12661400, “Oral bioavailable ITRI-148 degrades androgen receptor variants and overcomes antiandrogen resistance in advanced prostate cancer” (Neoplasia (New York, N.Y.), 2025).

Test system: LNCaP
Assay: MTT cell viability, 7 days
Assay type: cell-based
Conditions: Homo sapiens, 168 h
Method: Cells were seeded in 96-well plates and treated with drugs the next day. After 7 days, viability was assessed using MTT assay.
(C) Western blot analysis of AR and AR-V7 in C4-2B and C4-2B/MDVR cells after 48-hour ITRI-148 treatment. […] DEGs were determined relative to DMSO or pLKO.1 vector control. […] RPL13A was used for normalization. […] AR, AR-V7, and PSA expression in the drug-treated cells were detected across treatment timepoints.

IC50: 410 nM
SMILES: CNC(=O)c1ccc(N2C(=S)N(c3ccc(C#N)c(C(F)(F)F)c3)C(=O)C2(C)C)cc1F [Enza, enzalutamide]
